Results are given in words; binding and its absence hold for the method and conditions named. In cells and extracts the contact can be indirect. Some binding calls cover weakened binding; strength is not graded here.
Target: MUC5AC (human (endogenous in HCT-8 and LS174T)) (UniProt P98088)
Assay: co-IP; endogenous proteins from HCT-8 and LS174T lysates (1 mg/ml, pre-cleared); MUC5AC antibody (3 ug) on protein A/G plus agarose beads, 4 °C, 5-6 h; washed with RIPA buffer; blot with anti-CD44; IgG isotype control

Protein sequences, listed by entry. Tags and fused reporters are not part of them. Residues count along the entry.
UniProt P98088, residues 28-5654: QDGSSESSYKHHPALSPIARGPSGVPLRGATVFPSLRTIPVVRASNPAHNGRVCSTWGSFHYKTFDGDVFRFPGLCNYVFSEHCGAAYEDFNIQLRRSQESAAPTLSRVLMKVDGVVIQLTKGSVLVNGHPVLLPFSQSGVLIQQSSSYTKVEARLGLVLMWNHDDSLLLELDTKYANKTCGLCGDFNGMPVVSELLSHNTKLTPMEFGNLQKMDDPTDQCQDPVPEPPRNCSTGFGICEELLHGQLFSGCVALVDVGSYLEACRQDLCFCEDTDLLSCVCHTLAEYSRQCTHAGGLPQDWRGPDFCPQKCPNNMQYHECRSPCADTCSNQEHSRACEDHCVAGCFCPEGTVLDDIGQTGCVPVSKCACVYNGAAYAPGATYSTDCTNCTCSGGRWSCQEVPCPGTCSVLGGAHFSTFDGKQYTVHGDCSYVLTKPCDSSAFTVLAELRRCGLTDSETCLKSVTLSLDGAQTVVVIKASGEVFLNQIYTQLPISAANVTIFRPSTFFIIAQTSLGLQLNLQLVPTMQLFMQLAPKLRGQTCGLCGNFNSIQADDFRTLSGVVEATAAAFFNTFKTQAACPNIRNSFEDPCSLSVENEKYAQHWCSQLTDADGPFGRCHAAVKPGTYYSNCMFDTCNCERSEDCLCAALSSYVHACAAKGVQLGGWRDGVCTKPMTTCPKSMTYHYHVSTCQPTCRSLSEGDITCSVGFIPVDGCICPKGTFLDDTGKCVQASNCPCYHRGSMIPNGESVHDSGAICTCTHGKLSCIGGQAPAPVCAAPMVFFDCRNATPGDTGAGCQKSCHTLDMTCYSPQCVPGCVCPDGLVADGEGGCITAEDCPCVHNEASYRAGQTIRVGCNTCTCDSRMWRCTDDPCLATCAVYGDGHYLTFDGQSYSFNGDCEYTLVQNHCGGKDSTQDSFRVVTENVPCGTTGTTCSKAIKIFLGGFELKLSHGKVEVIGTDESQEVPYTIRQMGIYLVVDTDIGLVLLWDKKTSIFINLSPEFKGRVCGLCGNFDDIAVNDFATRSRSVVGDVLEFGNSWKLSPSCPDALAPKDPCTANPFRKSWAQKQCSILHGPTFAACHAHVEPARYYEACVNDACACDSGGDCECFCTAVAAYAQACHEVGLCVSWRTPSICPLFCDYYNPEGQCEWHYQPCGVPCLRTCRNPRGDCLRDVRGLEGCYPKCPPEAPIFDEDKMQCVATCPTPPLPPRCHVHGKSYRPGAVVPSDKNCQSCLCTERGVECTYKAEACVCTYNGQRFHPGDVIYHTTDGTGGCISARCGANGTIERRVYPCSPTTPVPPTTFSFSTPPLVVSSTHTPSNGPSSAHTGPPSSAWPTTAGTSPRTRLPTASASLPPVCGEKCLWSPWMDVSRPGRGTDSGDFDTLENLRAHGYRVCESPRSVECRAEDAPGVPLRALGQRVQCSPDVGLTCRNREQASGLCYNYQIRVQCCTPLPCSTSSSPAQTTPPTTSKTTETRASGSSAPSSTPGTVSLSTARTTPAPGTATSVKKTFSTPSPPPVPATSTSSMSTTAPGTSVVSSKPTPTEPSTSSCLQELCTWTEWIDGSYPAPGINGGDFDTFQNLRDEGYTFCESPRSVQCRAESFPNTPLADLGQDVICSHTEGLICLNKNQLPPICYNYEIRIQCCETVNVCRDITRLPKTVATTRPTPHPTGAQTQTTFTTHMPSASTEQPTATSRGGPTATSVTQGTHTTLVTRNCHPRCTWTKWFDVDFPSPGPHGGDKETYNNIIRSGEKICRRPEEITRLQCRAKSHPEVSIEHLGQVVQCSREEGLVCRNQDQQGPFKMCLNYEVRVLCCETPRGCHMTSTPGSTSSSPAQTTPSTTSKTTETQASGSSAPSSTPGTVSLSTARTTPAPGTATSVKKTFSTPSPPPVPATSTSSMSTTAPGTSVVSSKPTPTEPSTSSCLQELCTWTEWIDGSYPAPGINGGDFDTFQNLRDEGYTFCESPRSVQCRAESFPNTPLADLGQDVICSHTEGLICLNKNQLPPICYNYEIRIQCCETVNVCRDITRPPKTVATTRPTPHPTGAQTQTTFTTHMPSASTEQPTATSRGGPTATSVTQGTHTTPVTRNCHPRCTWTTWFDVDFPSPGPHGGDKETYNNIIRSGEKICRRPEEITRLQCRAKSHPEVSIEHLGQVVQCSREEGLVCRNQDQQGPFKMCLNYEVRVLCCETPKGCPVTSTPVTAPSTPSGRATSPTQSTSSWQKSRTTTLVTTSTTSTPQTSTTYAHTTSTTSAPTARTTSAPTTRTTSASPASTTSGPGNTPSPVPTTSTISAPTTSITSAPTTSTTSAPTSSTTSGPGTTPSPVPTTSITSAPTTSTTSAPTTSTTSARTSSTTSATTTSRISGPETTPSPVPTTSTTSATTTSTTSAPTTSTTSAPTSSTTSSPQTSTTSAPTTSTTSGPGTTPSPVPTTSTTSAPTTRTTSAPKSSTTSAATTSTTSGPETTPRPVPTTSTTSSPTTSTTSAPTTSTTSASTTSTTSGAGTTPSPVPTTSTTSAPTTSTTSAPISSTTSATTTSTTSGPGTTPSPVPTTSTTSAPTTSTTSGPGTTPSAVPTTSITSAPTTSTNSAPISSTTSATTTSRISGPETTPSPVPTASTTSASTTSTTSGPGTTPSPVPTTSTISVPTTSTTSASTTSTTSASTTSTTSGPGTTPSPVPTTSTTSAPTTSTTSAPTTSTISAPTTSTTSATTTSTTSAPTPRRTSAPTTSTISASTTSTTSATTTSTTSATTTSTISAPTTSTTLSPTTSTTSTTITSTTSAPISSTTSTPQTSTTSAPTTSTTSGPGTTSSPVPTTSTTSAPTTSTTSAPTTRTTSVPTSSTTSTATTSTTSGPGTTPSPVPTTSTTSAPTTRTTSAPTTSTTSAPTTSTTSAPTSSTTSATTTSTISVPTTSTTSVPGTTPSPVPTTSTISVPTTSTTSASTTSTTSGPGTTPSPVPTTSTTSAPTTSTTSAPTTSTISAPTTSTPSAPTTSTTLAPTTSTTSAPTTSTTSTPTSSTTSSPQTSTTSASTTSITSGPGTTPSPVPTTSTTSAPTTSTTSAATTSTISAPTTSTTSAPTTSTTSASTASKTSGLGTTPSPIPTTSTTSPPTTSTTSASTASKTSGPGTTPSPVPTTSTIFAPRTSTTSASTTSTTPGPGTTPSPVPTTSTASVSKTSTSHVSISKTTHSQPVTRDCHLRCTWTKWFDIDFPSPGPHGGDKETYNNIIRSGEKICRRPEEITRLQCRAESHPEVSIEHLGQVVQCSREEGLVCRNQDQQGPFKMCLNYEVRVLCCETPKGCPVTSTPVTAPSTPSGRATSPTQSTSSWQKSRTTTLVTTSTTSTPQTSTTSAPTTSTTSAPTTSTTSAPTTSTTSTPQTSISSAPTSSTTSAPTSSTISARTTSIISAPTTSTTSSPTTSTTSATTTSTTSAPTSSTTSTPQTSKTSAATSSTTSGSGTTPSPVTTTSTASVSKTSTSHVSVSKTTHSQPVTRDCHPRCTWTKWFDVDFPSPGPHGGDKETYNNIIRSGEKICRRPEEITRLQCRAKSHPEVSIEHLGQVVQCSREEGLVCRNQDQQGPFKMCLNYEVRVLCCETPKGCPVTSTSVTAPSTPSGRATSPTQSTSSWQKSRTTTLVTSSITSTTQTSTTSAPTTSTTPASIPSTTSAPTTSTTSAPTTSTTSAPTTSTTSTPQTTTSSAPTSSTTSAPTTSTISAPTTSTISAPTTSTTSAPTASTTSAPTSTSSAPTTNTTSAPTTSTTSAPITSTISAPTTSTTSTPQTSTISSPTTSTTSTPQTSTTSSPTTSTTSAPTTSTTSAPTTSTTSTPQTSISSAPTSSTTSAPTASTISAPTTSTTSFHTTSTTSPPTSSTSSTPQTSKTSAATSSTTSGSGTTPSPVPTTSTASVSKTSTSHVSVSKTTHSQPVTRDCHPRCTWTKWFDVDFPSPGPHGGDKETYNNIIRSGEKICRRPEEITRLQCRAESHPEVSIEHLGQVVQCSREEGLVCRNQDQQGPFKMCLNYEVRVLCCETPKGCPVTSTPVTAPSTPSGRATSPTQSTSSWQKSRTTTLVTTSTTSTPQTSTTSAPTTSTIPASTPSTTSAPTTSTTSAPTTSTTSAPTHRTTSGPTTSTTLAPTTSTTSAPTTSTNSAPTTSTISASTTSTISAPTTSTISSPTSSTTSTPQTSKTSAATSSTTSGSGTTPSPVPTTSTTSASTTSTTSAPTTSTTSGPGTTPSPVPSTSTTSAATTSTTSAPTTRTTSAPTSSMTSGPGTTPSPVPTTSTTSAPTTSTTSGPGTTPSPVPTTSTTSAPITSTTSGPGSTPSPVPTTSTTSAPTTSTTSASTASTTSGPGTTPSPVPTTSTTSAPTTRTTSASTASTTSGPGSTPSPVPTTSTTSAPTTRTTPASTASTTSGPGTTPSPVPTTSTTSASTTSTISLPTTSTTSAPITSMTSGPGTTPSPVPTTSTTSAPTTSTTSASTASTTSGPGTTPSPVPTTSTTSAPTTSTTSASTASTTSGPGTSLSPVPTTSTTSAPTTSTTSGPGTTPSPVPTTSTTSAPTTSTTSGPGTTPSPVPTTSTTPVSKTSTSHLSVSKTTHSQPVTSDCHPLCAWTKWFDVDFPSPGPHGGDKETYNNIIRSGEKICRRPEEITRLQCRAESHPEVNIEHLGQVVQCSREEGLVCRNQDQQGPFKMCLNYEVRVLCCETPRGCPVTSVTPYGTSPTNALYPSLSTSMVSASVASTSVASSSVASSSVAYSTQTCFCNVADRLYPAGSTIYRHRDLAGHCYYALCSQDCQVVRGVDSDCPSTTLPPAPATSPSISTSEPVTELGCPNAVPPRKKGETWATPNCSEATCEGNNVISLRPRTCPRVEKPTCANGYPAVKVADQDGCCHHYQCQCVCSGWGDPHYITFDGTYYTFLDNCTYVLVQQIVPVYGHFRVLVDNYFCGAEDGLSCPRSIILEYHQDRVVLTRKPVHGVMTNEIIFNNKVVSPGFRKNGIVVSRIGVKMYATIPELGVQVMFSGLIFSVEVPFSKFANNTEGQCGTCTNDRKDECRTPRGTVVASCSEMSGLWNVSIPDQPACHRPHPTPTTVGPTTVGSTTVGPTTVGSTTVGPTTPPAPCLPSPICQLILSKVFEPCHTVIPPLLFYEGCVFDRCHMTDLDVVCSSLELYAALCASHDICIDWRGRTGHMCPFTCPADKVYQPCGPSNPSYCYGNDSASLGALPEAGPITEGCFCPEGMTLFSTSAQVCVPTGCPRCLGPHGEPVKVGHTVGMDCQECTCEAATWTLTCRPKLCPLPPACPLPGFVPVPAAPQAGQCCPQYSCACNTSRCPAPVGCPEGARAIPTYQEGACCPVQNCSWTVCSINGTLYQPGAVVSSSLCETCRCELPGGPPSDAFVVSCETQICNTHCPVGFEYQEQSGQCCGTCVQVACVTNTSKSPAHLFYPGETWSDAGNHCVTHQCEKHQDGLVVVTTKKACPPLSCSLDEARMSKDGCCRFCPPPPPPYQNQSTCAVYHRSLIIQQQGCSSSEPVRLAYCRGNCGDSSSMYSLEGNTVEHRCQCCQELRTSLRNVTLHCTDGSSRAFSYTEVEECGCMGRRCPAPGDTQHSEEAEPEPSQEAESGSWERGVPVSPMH
UniProt P16070, residues 21-742: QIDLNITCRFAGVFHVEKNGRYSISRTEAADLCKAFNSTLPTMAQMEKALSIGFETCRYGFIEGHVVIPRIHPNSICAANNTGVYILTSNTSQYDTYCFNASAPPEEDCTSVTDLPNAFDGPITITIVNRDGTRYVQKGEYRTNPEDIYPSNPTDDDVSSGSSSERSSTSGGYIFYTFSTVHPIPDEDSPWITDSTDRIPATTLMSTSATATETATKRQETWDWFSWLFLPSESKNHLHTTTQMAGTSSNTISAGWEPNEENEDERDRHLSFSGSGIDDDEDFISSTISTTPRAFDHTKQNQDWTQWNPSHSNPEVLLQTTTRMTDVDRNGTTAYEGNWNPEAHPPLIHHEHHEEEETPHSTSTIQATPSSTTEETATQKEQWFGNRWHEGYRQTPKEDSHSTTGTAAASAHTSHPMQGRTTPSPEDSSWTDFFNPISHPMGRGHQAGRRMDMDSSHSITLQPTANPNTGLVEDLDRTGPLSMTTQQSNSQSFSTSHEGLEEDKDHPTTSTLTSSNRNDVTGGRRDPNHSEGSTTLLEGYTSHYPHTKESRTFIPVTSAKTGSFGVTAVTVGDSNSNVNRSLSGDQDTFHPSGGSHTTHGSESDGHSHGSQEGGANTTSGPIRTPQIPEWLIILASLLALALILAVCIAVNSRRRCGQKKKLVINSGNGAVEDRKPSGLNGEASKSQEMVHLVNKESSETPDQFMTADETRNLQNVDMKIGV

binding: binds
Substance: CD44 (from UniProt P16070 21-742) (receptor)
